Assay results: the supplement of paper PMC10849652
Some of the results follow.

Chains of the proteins cited; added tags and fusions are not shown. Lines headed by an entry give the natural chain unless they say otherwise; changes in a name come on top.
UniProt Q9P0U1: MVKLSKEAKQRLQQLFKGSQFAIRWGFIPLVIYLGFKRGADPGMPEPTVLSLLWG
UniProt O75648: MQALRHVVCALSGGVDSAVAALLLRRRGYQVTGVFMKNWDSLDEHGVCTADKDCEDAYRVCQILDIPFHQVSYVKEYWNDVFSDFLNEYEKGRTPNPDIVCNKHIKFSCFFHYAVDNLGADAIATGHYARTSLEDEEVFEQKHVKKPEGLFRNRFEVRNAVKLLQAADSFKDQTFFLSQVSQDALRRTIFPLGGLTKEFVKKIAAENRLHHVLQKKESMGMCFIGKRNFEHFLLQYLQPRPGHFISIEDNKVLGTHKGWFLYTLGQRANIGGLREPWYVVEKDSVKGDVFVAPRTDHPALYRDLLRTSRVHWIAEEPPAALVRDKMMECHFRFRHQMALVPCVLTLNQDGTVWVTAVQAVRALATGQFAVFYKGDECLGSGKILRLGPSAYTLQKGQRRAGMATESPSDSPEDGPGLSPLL
UniProt P29144: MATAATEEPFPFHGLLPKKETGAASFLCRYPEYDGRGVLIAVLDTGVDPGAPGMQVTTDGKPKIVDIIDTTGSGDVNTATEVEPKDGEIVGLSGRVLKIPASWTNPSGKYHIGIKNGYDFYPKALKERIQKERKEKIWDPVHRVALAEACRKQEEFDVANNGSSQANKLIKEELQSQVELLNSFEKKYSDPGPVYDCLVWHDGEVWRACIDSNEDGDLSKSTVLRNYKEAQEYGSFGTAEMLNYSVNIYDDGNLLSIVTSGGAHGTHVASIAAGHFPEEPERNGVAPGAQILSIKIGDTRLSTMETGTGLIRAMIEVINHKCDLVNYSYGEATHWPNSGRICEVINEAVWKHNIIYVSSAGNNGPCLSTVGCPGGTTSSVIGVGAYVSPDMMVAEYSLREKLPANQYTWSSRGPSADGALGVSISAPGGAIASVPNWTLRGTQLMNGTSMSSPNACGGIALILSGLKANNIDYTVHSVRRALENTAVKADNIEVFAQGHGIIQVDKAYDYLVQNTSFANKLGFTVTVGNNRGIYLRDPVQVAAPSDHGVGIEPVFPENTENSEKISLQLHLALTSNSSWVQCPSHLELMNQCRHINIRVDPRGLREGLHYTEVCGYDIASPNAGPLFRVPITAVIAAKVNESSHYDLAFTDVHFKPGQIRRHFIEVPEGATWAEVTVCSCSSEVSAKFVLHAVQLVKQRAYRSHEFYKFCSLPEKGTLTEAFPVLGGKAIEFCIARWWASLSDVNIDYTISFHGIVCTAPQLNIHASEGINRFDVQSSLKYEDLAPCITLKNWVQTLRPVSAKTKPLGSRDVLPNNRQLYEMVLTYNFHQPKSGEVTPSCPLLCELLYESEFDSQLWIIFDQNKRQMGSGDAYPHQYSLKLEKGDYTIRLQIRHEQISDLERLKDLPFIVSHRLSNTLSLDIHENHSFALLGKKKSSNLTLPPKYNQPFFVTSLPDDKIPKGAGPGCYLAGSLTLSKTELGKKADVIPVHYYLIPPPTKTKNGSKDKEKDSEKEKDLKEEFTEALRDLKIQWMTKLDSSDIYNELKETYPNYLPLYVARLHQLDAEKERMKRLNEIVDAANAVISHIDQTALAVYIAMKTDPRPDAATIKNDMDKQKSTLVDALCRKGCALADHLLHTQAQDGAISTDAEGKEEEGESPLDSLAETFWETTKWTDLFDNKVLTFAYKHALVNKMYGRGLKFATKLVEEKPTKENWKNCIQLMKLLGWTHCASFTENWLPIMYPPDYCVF
UniProt Q8WW01: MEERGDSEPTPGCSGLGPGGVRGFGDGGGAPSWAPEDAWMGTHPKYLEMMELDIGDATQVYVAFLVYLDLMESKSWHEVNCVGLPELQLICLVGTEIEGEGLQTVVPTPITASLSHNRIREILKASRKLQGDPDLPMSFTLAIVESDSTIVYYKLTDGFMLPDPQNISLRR
UniProt Q12933: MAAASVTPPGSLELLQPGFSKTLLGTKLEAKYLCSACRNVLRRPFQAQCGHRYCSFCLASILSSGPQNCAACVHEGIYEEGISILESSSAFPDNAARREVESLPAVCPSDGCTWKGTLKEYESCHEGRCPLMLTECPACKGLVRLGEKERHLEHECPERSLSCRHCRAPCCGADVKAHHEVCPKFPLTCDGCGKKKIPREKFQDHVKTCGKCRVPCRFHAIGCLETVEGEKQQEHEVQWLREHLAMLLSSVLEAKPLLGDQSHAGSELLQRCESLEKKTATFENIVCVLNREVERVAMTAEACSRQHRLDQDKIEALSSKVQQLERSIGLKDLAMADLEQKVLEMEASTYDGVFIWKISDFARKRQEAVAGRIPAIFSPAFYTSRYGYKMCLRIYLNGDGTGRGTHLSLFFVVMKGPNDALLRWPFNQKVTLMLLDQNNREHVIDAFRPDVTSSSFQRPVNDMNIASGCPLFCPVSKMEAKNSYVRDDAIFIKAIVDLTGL
UniProt Q9Y5S1: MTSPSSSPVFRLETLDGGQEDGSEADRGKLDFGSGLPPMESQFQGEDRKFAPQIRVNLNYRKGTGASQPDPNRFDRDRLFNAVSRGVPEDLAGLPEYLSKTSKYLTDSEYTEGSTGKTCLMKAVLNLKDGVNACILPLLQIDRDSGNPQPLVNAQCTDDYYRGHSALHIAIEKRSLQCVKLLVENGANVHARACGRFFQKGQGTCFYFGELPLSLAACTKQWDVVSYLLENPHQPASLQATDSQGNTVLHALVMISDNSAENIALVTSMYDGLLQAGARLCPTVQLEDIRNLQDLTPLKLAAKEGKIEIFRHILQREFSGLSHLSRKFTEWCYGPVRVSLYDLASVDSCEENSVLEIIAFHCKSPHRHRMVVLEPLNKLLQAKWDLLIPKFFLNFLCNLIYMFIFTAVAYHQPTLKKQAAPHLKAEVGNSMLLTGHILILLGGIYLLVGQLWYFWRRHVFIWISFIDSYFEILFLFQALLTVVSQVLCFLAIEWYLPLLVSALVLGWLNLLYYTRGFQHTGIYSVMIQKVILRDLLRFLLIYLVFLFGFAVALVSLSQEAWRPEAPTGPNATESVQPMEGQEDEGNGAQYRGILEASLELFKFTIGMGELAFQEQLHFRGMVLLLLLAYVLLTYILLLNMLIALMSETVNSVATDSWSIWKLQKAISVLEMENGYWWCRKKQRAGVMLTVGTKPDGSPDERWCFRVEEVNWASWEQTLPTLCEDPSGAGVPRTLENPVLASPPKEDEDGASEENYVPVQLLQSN
UniProt Q96Q05, whole entry, looked up: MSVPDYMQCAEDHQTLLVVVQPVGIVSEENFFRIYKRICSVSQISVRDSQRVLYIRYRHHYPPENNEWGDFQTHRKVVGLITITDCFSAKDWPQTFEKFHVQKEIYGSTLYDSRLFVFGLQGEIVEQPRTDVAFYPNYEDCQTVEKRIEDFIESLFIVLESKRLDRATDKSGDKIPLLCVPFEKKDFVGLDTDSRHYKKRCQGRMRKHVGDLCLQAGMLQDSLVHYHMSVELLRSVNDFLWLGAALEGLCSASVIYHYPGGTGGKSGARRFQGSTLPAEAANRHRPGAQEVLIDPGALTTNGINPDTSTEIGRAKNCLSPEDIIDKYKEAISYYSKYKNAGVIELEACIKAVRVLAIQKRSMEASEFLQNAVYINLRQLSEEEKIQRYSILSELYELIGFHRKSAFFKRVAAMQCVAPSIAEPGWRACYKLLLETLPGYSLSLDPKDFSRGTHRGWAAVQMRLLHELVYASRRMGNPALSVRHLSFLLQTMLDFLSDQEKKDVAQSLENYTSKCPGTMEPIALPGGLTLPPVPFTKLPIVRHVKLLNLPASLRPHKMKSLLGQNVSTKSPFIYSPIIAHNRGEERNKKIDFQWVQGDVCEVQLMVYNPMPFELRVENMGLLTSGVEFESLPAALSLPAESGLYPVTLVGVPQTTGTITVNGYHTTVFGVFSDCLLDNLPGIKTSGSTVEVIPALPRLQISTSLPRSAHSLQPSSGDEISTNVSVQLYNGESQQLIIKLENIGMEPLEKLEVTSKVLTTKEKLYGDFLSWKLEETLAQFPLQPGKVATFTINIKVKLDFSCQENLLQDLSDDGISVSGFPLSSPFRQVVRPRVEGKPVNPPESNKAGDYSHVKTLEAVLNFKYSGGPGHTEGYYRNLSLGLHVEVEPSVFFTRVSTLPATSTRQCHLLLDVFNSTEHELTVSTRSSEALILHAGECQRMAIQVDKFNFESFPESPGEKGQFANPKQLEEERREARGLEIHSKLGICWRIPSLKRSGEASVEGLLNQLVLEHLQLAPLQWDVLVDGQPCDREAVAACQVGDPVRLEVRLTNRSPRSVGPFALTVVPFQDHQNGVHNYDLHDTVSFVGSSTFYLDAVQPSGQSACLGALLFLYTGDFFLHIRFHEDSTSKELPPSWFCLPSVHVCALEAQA
UniProt P06753, whole entry, looked up: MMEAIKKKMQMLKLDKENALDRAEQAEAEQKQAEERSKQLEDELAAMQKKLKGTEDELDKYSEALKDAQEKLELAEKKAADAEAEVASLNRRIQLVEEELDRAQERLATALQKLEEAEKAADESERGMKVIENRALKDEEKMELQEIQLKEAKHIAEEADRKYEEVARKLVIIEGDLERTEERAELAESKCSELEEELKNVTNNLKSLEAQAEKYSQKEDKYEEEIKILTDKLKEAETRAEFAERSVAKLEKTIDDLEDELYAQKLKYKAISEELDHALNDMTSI
UniProt P60174, whole entry, looked up: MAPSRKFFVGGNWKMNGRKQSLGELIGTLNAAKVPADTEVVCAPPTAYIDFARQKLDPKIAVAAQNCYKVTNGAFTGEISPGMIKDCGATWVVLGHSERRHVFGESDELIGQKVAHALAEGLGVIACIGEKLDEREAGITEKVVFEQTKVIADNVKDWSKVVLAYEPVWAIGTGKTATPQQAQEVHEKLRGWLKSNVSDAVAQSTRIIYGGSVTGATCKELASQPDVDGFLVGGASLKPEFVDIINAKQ
UniProt Q9Y296, whole entry, looked up: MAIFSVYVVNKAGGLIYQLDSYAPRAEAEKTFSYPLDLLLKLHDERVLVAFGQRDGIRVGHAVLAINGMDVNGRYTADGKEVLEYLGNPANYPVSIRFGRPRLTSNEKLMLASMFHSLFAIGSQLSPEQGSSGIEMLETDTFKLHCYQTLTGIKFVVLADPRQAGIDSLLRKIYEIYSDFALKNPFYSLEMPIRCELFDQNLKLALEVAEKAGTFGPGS
UniProt Q9H497: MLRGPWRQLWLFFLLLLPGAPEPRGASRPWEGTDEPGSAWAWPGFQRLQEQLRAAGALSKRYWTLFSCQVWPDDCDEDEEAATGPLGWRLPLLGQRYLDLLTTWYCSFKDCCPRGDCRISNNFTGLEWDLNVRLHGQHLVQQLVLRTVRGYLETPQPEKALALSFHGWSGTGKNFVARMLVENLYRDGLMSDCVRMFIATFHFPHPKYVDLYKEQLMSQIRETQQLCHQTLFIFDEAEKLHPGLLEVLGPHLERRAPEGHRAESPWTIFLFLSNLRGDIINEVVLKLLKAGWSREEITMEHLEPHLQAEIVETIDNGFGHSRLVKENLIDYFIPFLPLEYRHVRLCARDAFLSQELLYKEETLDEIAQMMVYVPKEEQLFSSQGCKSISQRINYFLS
UniProt Q14134: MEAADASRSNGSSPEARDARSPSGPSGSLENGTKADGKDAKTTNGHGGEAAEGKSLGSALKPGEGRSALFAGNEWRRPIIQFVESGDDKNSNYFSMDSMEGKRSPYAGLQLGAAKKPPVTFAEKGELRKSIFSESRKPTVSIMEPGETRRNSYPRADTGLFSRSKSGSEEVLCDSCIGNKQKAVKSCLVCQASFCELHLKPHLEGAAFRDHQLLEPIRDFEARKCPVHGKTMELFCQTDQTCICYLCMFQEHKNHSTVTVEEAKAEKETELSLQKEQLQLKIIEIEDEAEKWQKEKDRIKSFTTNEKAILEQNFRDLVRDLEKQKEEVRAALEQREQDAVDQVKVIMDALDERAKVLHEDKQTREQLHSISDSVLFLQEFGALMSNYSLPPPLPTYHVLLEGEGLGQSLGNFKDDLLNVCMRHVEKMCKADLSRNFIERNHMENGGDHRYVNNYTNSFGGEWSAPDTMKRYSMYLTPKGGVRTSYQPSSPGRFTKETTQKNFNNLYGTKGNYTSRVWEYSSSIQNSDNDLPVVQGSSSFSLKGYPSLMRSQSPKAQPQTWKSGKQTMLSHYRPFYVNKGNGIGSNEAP
UniProt O14657: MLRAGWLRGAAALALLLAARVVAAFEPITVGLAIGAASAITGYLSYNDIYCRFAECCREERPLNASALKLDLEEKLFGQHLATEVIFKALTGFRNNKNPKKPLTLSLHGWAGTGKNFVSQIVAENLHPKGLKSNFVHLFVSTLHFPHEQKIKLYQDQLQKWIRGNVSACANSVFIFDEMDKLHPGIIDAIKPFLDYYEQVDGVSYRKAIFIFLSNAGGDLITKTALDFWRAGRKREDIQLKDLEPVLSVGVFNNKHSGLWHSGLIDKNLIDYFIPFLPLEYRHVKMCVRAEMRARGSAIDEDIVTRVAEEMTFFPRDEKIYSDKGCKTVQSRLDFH
UniProt O43399: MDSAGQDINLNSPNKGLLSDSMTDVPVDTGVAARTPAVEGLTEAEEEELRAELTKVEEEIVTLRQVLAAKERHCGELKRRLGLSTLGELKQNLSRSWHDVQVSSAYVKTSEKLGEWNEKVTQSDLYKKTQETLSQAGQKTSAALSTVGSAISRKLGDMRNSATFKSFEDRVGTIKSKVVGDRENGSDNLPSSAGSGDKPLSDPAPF

Key:
Assay in all cases: log2 fold change, soluble protein after heating vs DMSO (PISA); higher = thermal stabilisation; K562 cells, 10 uM, 30 min; active = over 0.2 and 3.5 SD of the protein, either way, in both replicates (recomputed)
[1] = compound: CC[C@@H]1C(=O)N(C)c2cnc(Nc3ccc(C(=O)NC4CCN(C)CC4)cc3OC)nc2N1C1CCCC1
Method in brief: (§1)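 Values are thermal stability changes relative to control samples and are taken from duplicates. They are stated as log2 fold changes. Before quantification by TMTpro 16plex LC-MS/MS with equalised channel sums, K562 cells at 2×10^6 cells/mL were treated with 10 μM compound for 30 min, heated in aliquots for 3 min across 48°C-58°C, pooled, extracted in PBS with 0.5% NP-40 at 4°C, and centrifuged at 21,000xg for 90 min to give the soluble supernatant.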

[2] = compound: CC[C@@H]1C(=O)N(C)c2cnc(Nc3ccc(C(=O)N[C@H]4CC[C@H](N5CCN(CC6CC6)CC5)CC4)cc3OC)nc2N1C(C)C [volasertib]
Method in brief: as §1

[3] = compound: CC[C@H](C)N1C=C(C2=C(C=C(C=C21)C3=CN=C(C=C3)N4CCNCC4)C(=O)NCC5=C(C=C(NC5=O)C)C)C
Method in brief: as §1

[4] = compound: CC[C@H](C)[C@@H](C(=O)N[C@@H]([C@@H](C)O)C(=O)N[C@@H](CC(C)C)C(=O)[C@]1(CO1)C)NC(=O)[C@H]([C@@H](C)CC)N(C)C(=O)C [epoxomicin]
Method in brief: as §1

[5] = compound: CCn1c(C(=O)N(C2CC2)C2CC2)cc2c3c(ncn3C)c(Nc3cc(C)n(C)n3)nc21
Method in brief: as §1

[6] = compound: CCn1cc(-c2ccnc3[nH]c(-c4cccc(CN(C)C)c4)cc23)c(-c2ccc(NC(=O)N(C)C)cc2)n1
Method in brief: as §1

[7] = compound: CN(C)CC(=O)Nc1ccc2[nH]c(=O)c3ccccc3c2c1
Method in brief: as §1

[8] = compound: CN(CCOC1=CC=C(C=C1)C[C@H]2C(=O)NC(=O)S2)C3=CC=CC=N3 (racemic) [rosiglitazone]
Method in brief: as §1

[9] = compound: CN1C2=C(C3=C1C(=O)N(N=C3)CC4=CC(=CC=C4)N)SC(=C2)S(=O)C
Method in brief: as §1

[10] = compound: CN1CCC(CNc2ccc3ncc(-c4cccc(OC(F)(F)F)c4)n3n2)CC1
Method in brief: as §1

Measured: log2 fold change

TOMM7 (UniProt Q9P0U1)
inactive: [1] 0.061 | [2] -0.131 | [3] -0.094 | [4] 0.167 | [5] 0.062 | [6] -0.049 | [7] -0.016 | [8] -0.029 | [9] 0 | [10] 0.06

TRAF6 (UniProt Q9Y4K3)
inactive: [1] -0.02 | [2] -0.119 | [3] 0.007 | [4] 0.08 | [5] 0.005 | [6] -0.138 | [7] -0.016 | [8] 0.037 | [9] 0.006 | [10] 0

TSC22D1 (UniProt Q15714)
inactive: [1] 0.046 | [2] -0.015 | [3] 0.008 | [4] 0.083 | [5] -0.035 | [6] -0.13 | [7] -0.026 | [8] -0.009 | [9] -0.079 | [10] 0.035

TNFRSF1B (UniProt P20333)
inactive: [1] 0.061 | [2] 0.109 | [3] 0.02 | [4] -0.042 | [5] 0.019 | [6] -0.052 | [7] -0.15 | [8] -0.016 | [9] -0.02 | [10] -0.035

TRIP6 (UniProt Q15654)
inactive: [1] -0.049 | [2] -0.188 | [3] 0.018 | [4] 0.028 | [5] -0.024 | [6] -0.015 | [7] -0.05 | [8] 0.027 | [9] -0.041 | [10] -0.027

TPM4, A0A2R8Y5V9
inactive: [1] 0.035 | [2] 0.158 | [3] 0.011 | [4] 0.004 | [5] -0.003 | [6] -0.001 | [7] -0.001 | [8] -0.028 | [9] -0.046 | [10] 0.043

TRMU (UniProt O75648)
inactive: [1] -0.014 | [2] -0.105 | [3] -0.022 | [4] 0.059 | [5] -0.031 | [6] -0.043 | [7] 0.011 | [8] 0.026 | [9] -0.059 | [10] 0.007

TPP2 (UniProt P29144)
inactive: [1] 0.072 | [2] 0.334 | [3] 0.028 | [4] -0.166 | [5] -0.01 | [6] 0.057 | [7] -0.069 | [8] -0.043 | [9] 0.131 | [10] 0.093

TSEN15 (UniProt Q8WW01)
inactive: [1] 0.038 | [2] 0.006 | [3] -0.034 | [4] 0.009 | [5] -0.011 | [6] 0.013 | [7] 0.033 | [8] 0.04 | [9] -0.046 | [10] -0.053

TRIM11 (UniProt Q96F44)
inactive: [1] -0.051 | [2] -0.074 | [3] 0.052 | [4] 0.103 | [5] -0.017 | [6] 0.082 | [7] 0.093 | [8] 0.041 | [9] -0.03 | [10] -0.089

TRAF2 (UniProt Q12933)
inactive: [1] 0.011 | [2] -0.117 | [3] 0.017 | [4] 0.045 | [5] -0.038 | [6] -0.002 | [7] 0.013 | [8] 0.034 | [9] -0.079 | [10] -0.017

TRPV2 (UniProt Q9Y5S1)
inactive: [1] 0.021 | [2] 0.074 | [3] 0.02 | [4] 0.024 | [5] -0.044 | [6] -0.031 | [7] 0.057 | [8] 0.018 | [9] -0.055 | [10] 0.223

TRAPPC9 isoform 2 (UniProt Q96Q05)
inactive: [1] 0.145 | [2] -0.086 | [3] 0.008 | [4] -0.003 | [5] -0.037 | [6] -0.054 | [7] -0.016 | [8] 0.04 | [9] 0.062 | [10] -0.027

TPM4 isoform 2 (UniProt P67936)
inactive: [1] -0.044 | [2] 0.021 | [3] -0.012 | [4] 0.01 | [5] 0.005 | [6] 0.018 | [7] 0.021 | [8] 0.017 | [9] 0.04 | [10] -0.029

TRIP11 (UniProt Q15643)
inactive: [1] 0.052 | [2] -0.094 | [3] -0.14 | [4] -0.212 | [5] -0.081 | [6] -0.064 | [7] 0.068 | [8] -0.023 | [9] 0.276 | [10] -0.196

TRIP4 (UniProt Q15650)
inactive: [1] 0.025 | [2] -0.22 | [3] 0.059 | [4] -0.123 | [5] -0.019 | [6] -0.01 | [7] -0.009 | [8] 0.012 | [9] 0.032 | [10] -0.216

TPM3 isoform 4 (UniProt P06753)
inactive: [1] 0.055 | [2] 0.08 | [3] 0.008 | [4] 0.06 | [5] 0.021 | [6] 0.031 | [7] -0.068 | [8] 0.02 | [9] 0.024 | [10] -0.087

TRIT1 (UniProt Q9H3H1)
inactive: [1] -0.064

TRMT11 (UniProt Q7Z4G4)
inactive: [1] 0 | [2] -0.039 | [3] 0.035 | [4] -0.009 | [5] 0.029 | [6] -0.044 | [7] 0.004 | [8] -0.036 | [9] -0.09 | [10] 0.024

TPI1 (UniProt P60174)
inactive: [1] 0.01 | [2] 0.048 | [3] -0.028 | [4] 0.012 | [5] 0.004 | [6] 0 | [7] -0.02 | [8] 0.009 | [9] -0.061 | [10] -0.072

TRAPPC4 (UniProt Q9Y296)
inactive: [1] 0.015 | [2] -0.046 | [3] 0.02 | [4] 0.076 | [5] 0.017 | [6] 0.025 | [7] -0.003 | [8] 0.035 | [9] -0.022 | [10] -0.059

TPRG1L (UniProt Q5T0D9)
inactive: [1] -0.251 | [2] -0.268 | [3] -0.073 | [4] 0.085 | [5] 0.107

Taken from above (2 entries):
TPI1 (UniProt P60174)
inactive: [1] 0.01 | [2] 0.048 | [3] -0.028 | [4] 0.012 | [5] 0.004 | [6] 0 | [7] -0.02 | [8] 0.009 | [9] -0.061 | [10] -0.072

TRAPPC4 (UniProt Q9Y296)
inactive: [1] 0.015 | [2] -0.046 | [3] 0.02 | [4] 0.076 | [5] 0.017 | [6] 0.025 | [7] -0.003 | [8] 0.035 | [9] -0.022 | [10] -0.059

Additional results.

TOR3A (UniProt Q9H497)
inactive: [1] 0.03 | [2] -0.073 | [3] -0.02 | [4] 0.012 | [5] 0.011 | [6] 0.024 | [7] -0.046 | [8] -0.017 | [9] 0.055 | [10] 0.015

TRPT1 isoform 4 (UniProt Q86TN4)
inactive: [1] 0.084

TRIM29 (UniProt Q14134)
inactive: [1] 0.498

TOP1 (UniProt P11387)
inactive: [1] -0.03 | [2] 0.022 | [3] 0.284 | [4] -0.049 | [5] -0.124 | [6] 0.361 | [7] 0.046 | [8] -0.216 | [9] 0.277 | [10] 0.2

TPT1 (UniProt P13693)
inactive: [1] 0 | [2] 0.169 | [3] 0.054 | [4] 0.059 | [5] -0.008 | [6] -0.202 | [7] 0.01 | [8] 0.049 | [9] -0.103 | [10] -0.062

TPM3 isoform 2 (UniProt P06753)
inactive: [1] -0.052 | [2] 0.283 | [3] -0.073 | [4] 0.059 | [5] 0.005 | [6] -0.005 | [7] -0.005 | [8] -0.005 | [9] -0.018 | [10] 0.012

TOR1B (UniProt O14657)
inactive: [1] 0.027 | [2] 0.014 | [3] 0.03 | [4] -0.02 | [5] 0.04 | [6] 0.032 | [7] -0.039 | [8] 0.009 | [9] 0.057 | [10] 0.002

TNXB isoform 4 (UniProt P22105)
inactive: [1] -0.082

TRMT112 (UniProt Q9UI30)
inactive: [1] 0.005 | [2] -0.022 | [3] -0.024 | [4] 0.053 | [5] 0 | [6] -0.032 | [7] 0.067 | [8] 0.015 | [9] -0.041 | [10] 0.033

TPD52L2 isoform 7 (UniProt O43399)
inactive: [1] 0.008 | [2] 0.078 | [3] -0.016 | [4] -0.003 | [5] 0.03 | [6] 0.046 | [7] -0.019 | [8] 0.016 | [9] -0.046 | [10] -0.031

TSC22D4 (UniProt Q9Y3Q8)
inactive: [1] -0.041 | [2] -0.079 | [3] 0.034 | [4] -0.01 | [5] 0.002 | [6] 0.01 | [7] -0.01 | [8] -0.003 | [9] 0 | [10] -0.032

TOMM40 (UniProt O96008)
inactive: [1] 0.038 | [2] 0.017 | [3] -0.038 | [4] 0.008 | [5] 0.004 | [6] -0.024 | [7] -0.007 | [8] 0.02 | [9] -0.039 | [10] 0.089
